Measurements reported in PMC12224964.
These are yes or no findings as the source states them, for the method shown. Binding seen in cells or lysates may run through a third protein. Some results given as binding are weak or reduced against the parent protein; the word gives no strength. Values belong to the binder of their own block, whether it stands above or below them.

What was measured:
VPS41-1-286 = target: T1, VPS41-1-286 (UniProt P49754); assay: co-IP; HEK-293T cells transfected with VPS41 or KAI1 truncation plasmids
T1 sequence: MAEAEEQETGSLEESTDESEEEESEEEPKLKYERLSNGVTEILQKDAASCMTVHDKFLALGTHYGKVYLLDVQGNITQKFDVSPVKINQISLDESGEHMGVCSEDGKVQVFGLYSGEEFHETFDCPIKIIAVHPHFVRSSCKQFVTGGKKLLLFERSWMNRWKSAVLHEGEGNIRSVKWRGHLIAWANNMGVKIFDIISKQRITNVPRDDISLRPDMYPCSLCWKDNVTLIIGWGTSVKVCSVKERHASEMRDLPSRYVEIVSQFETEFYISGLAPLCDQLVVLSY

[1] = target: T2, VPS41 (as in the co-immunoprecipitations with KAI1) (UniProt P49754); assay: co-IP; VPS41 with KAI1 (Figure 5F); also with PNGase F treatment (Figure 5G) and after CQ treatment of the cells (Figure 6E); cells and bait not told in the main text
T2 sequence: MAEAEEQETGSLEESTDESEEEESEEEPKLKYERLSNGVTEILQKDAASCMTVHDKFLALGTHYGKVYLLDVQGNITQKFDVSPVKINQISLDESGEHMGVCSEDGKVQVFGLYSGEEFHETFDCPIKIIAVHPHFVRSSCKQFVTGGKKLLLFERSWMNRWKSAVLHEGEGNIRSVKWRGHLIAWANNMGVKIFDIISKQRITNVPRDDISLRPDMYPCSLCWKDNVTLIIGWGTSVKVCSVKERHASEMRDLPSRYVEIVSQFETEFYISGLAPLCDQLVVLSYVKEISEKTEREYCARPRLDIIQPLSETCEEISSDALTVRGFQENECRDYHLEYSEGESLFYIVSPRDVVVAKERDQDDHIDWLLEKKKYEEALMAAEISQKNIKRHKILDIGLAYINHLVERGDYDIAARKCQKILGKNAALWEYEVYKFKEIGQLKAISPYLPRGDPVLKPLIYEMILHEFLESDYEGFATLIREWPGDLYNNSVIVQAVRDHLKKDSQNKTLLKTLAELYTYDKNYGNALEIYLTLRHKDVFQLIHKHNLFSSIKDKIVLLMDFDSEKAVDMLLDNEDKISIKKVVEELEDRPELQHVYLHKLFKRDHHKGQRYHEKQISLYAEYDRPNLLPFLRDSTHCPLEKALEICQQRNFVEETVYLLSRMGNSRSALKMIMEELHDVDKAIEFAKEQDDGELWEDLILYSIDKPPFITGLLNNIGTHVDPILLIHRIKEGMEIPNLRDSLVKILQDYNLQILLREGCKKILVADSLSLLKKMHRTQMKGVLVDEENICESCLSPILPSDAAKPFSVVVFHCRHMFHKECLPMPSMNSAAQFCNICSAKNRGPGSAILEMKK

binding (VPS41-1-286): binds
binding [1]: binds
B1: KAI1 (as in the co-immunoprecipitations with VPS41) (protein, UniProt P27701 1-267)
chain: MGSACIKVTKYFLFLFNLIFFILGAVILGFGVWILADKSSFISVLQTSSSSLRMGAYVFIGVGAVTMLMGFLGCIGAVNEVRCLLGLYFAFLLLILIAQVTAGALFYFNMGKLKQEMGGIVTELIRDYNSSREDSLQDAWDYVQAQVKCCGWVSFYNWTDNAELMNRPEVTYPCSCEVKGEEDNSLSVRKGFCEAPGNRTQSGNHPEDWPVYQEGCMEKVQAWLQENLGIILGVGVGVAIIELLGMVLSICLCRHVHSEDYSKVPKY
modifications: glycosylated (the paper speaks of the glycosylation on KAI1)

binding [1]: binds
B2: KAI1 treated with the glycosidase PNGase F (protein, UniProt P27701 1-267)
chain: B1 chain
modifications: treated with the glycosidase PNGase F
